In test [1] the test system is Staphylococcus aureus ATCC 29213. Briefly: Antibacterial activity, dilution susceptibility test (CLSI M07-A10). In kind it is cell-based. The following applies: ATCC29213.
Test [2] has as its system Staphylococcus aureus ATCC BAA-1556 (MERSA resistant). The test is described as above. The test is classed as cell-based. Conditions: ATCCBAA1556.

The structures appear in SMILES notation. Values after ≈ are worked out from the molar mass of the structure shown.

For the compound `CN[C@H](CC(C)C)C(=O)N[C@H]1C(=O)N[C@@H](CC(N)=O)C(=O)N[C@H]2C(=O)N[C@H]3C(=O)N[C@H](C(=O)N[C@H](C(=O)O)c4cc(O)cc(O)c4-c4cc3ccc4O)[C@H](O)c3ccc(c(Cl)c3)Oc3cc2cc(c3O[C@@H]2O[C@H](CO)[C@@H](O)[C@H](O)[C@H]2O[C@H]2C[C@](C)(N)[C@H](O)[C@H](C)O2)Oc2ccc(cc2Cl)[C@H]1O` [Vancomycin, reference compound], the MIC in test [1] and in test [2] was 1 µg/mL (≈ 0.69 µM) in each case.

Broadly, the MIC is the lowest concentration that inhibits growth of the organism. Read a low MIC as a more susceptible organism.
